Earlier results as cited in patent publication US20230109208A1 (priority 2020, published 2023).
Values joined by “and” are separate entries in the source; they are usually repeats but may differ in a detail not shown here. Equal entries are not always repeated. “Also recorded” adds a separate entry of the source. At least one compound was matched to its structure with a doubt left.

Tested on: COVID-19 (SARS-CoV-2)
Conditions: cited from earlier work

CCC(CC)COC(=O)[C@H](C)N[P@](=O)(OC[C@H]1O[C@@](C#N)(c2ccc3c(N)ncnn23)[C@H](O)[C@@H]1O)Oc1ccccc1 [Remdesivir]
Mean Days to Discharge (Remdesivir CU, 2 patients not discharged): 13.7 days
Days to Discharge from First Dose (individual patients No. 35-53): 10 days and 17 days and 28 days and 23 days and 26 days and 14 days and 13 days (2×) and 11 days (2×) and 8 days and 16 days (3×) and 7 days and 12 days and 6 days
Days to Improvement from First Dose (individual patients No. 35-53): 4 days (2×) and 2 days and 7 days (2×) and 6 days and 3 days and 13 days (2×) and 9 days and 10 days and 8 days and 1 days (3×) and 16 days and 11 days
Outcome (individual patients No. 35-53): Discharged; also recorded: Death; also recorded: Hospitalized
